Results are given in words; binding and its absence hold for the method and conditions named. Some entries that bind do so weakly or less than the wild type.
Key:
Human Nectin-4 = target: T1, Human Nectin-4 (human, UniProt Q96NY8 32-349, limits assumed); experiment: SPR (Biacore), Nectin-4 amine-coupled to the chip, compound as analyte, 25 deg C, fitted with a 1:1 binding model
T1 construct: Amine-coupled to the Biacore chip; also called target protein; ligand
T1 sequence: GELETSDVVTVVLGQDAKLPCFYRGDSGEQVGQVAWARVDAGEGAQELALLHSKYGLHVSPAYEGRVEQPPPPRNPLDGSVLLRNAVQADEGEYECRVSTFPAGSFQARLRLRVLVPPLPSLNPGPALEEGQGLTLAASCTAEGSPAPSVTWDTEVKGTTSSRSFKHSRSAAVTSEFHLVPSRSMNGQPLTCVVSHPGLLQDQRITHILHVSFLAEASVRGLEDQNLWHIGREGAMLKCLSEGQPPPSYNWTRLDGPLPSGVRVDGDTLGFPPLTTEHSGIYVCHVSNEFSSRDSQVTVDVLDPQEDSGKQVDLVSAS

Murine Nectin-4 (mouse) = target: T2, Murine Nectin-4 (mouse) (UniProt Q8R007); experiment: as above
T2 sequence: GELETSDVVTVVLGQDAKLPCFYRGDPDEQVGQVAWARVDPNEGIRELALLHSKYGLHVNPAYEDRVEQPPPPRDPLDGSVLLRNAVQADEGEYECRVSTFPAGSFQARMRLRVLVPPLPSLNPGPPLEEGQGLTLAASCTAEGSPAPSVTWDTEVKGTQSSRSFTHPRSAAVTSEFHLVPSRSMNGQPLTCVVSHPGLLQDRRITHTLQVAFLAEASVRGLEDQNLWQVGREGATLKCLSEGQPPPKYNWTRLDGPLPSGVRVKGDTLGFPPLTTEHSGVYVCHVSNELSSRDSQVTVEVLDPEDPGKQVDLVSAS

Binder: CEYDEEFFAGLKRLRGGDICYYIKKKFDKVPDLCIEEILDKLGC (designed binder, N-terminus ACETYL; C-terminus OH; disulfides Cys1-Cys34, Cys20-Cys44) [C9]
- binding (Human Nectin-4): binds
- binding (Murine Nectin-4 (mouse)): binds

Binder: CEYDEEFFAGLKRLRGGDICYYIKKKFDKVPDLCIEEILDKLGC (designed binder, N-terminus DOTA-PEG4; C-terminus OH; disulfides Cys1-Cys34, Cys20-Cys44) [C12]
- binding (Human Nectin-4): binds
- binding (Murine Nectin-4 (mouse)): binds

Binder: CEYDEEFFAGLKRLRGGDICYYIKKKFDKVPDLCIEEILDKLGC (designed binder, N-terminus 138La-DOTA-PEG4; C-terminus OH; disulfides Cys1-Cys34, Cys20-Cys44) [C91]
- binding (Human Nectin-4): binds
- binding (Murine Nectin-4 (mouse)): binds

— patent US20260034253A1, “NECTIN-4 MINIPROTEIN CONJUGATES” (Aktis Oncology, Inc., priority 2022, published 2026)
